According to PubChem BioAssay AID248 (DTP/NCI, 2004):
The list shows only some results of the screen, not a fair sample: it is rich in T/C values a quarter to a half above the control, in often repeated tests (any T/C) and in doses without a T/C. Further doses and runs are listed elsewhere. T/C is the treated group as % of the vehicle group. Some entries give survivors of the animals treated and no T/C: the source holds a T/C of zero for them, seemingly a mark for toxic or unscored doses. Some survivor counts are full or nearly so, which does not show that the dose was tolerated: survival well below the control is almost never listed, so the zero probably covers shortened survival too. Survivors were counted at the toxicity check, usually on the fifth day, unless a day is given; later deaths do not show. Schedules are NCI's codes, read here as Q, the interval in days (D) or hours (H), X, the number of doses. Additions like (4×) say how often a value occurs here. Some entries hold several experiments; their values stand side by side, smallest first. Where survival is the endpoint, this PubChem deposit counts one and a half times the control or more as active, and values a quarter to a half above the control carry no call in these data; other NCI protocols may use other cut-offs. Some T/C values are followed by the survivors on the day toxicity was checked, most often the fifth; where none is given, no animal had died by that day. Some schedule codes hold Z or #, which are not explained here.

Tested on: L1210 leukemia ip in BDF1 mice, survival T/C
Assay: NCI In Vivo Anticancer Drug Screen. Data for tumor model L1210 Leukemia (intraperitoneal) in B6D2F1 (BDF1) mice
Conditions: T/C endpoint: median survival time, higher T/C = longer survival

COc1cccc2c1C(=O)c1c(O)c3c(c(O)c1C2=O)C[C@@](O)(C(=O)CO)C[C@@H]3OC1CC(N)C(O)C(C)O1 (some centres undefined)
survivor count (dose: 3.0 mg/kg/injection, schedule: Q03HX024 (ip), vehicle: water): 4 of 8 | T/C (dose: 3.0 mg/kg/injection, schedule: Q04DX003 (ip), vehicle: water, evaluated on day 5): 94, 108, 136, 148 % of control | T/C (dose: 3.0 mg/kg/injection, schedule: Q04DX003 (ip), vehicle: water, evaluated on day 7): 98, 104, 105, 109 % of control | T/C (dose: 3.0 mg/kg/injection, schedule: Q04DX003 (ip), vehicle: water, evaluated on day 24): 111 % of control | T/C (dose: 3.0 mg/kg/injection, schedule: Q04DX003 (ip), vehicle: water, evaluated on day 31): 104 % of control | T/C (dose: 3.0 mg/kg/injection, schedule: Q04DX003 (ip), vehicle: water, evaluated on day 40): 105 % of control | T/C (dose: 3.0 mg/kg/injection, schedule: Q04DX003 (ip), vehicle: water, evaluated on day 60): 94, 98 [7 of 8 alive], 109, 110, 118, 130, 136, 148 % of control | T/C (dose: 3.0 mg/kg/injection, schedule: Q04DX003 (ip), vehicle: water, evaluated on day 90): 138 % of control | T/C (dose: 3.9 mg/kg/injection, schedule: Q04DX003 (ip), vehicle: water): 127 % of control | T/C (dose: 4.0 mg/kg/injection, schedule: Q01DX001 (ip), vehicle: saline, evaluated on day 5): 125, 126 (2×), 135, 136, 138, 166 % of control | T/C (dose: 4.0 mg/kg/injection, schedule: Q01DX001 (ip), vehicle: saline, evaluated on day 30): 135 % of control | T/C (dose: 4.0 mg/kg/injection, schedule: Q01DX001 (ip), vehicle: saline, evaluated on day 60): 126, 126 [9 of 10 alive], 136, 138, 142 % of control | T/C (dose: 4.0 mg/kg/injection, schedule: Q01DX001 (ip), vehicle: water, evaluated on day 5): 114 and 127 % of control | T/C (dose: 4.0 mg/kg/injection, schedule: Q01DX001 (ip), vehicle: water, evaluated on day 21): 127 % of control | T/C (dose: 4.0 mg/kg/injection, schedule: Q01DX001 (ip), vehicle: water, evaluated on day 30): 116 % of control [7 of 8 alive] | survivor count (dose: 4.0 mg/kg/injection, schedule: Q01DX009 (ip), vehicle: water): 9 of 10 | survivor count (dose: 4.0 mg/kg/injection, schedule: Q03HX008 (ip), vehicle: water): 1 of 10 and 3 of 8 | T/C (dose: 4.0 mg/kg/injection, schedule: Q04DX003 (ip), vehicle: water, evaluated on day 5): 132 % of control | T/C (dose: 4.0 mg/kg/injection, schedule: Q04DX003 (ip), vehicle: water, evaluated on day 30): 132 and 139 % of control | T/C (dose: 4.0 mg/kg/injection, schedule: Q## X001 (ip), vehicle: saline): 125 % of control | T/C (dose: 4.0 mg/kg/injection, schedule: Q##DX001 (ip), vehicle: saline): 142 % of control | T/C (dose: 5.0 mg/kg/injection, schedule: Q01DX001 (ip), vehicle: water, evaluated on day 5): 124, 133, 151 % of control | T/C (dose: 5.0 mg/kg/injection, schedule: Q01DX001 (ip), vehicle: water, evaluated on day 7): 115 % of control (2×) | T/C (dose: 5.0 mg/kg/injection, schedule: Q01DX001 (ip), vehicle: water, evaluated on day 24): 116 and 122 % of control | T/C (dose: 5.0 mg/kg/injection, schedule: Q01DX001 (ip), vehicle: water, evaluated on day 30): 125, 130, 133 % of control | T/C (dose: 5.0 mg/kg/injection, schedule: Q01DX001 (ip), vehicle: water, evaluated on day 33): 116 % of control | T/C (dose: 5.0 mg/kg/injection, schedule: Q01DX001 (ip), vehicle: water, evaluated on day 46): 122 % of control | T/C (dose: 5.0 mg/kg/injection, schedule: Q01DX001 (ip), vehicle: water, evaluated on day 60): 104 and 109 % of control | T/C (dose: 5.0 mg/kg/injection, schedule: Q01DX001 (ip), vehicle: water, evaluated on day 61): 126 % of control | survivor count (dose: 5.0 mg/kg/injection, schedule: Q01DX005 (ip), vehicle: water): 8 of 8 | survivor count (dose: 5.0 mg/kg/injection, schedule: Q01DX005 (sc), vehicle: water): 8 of 8 | T/C (dose: 5.0 mg/kg/injection, schedule: Q03HX008 (ip), vehicle: water, evaluated on day 7): 94, 95, 110 % of control | T/C (dose: 5.0 mg/kg/injection, schedule: Q03HX008 (ip), vehicle: water, evaluated on day 20): 94 % of control [7 of 8 alive] | T/C (dose: 5.0 mg/kg/injection, schedule: Q03HX008 (ip), vehicle: water, evaluated on day 32): 95 % of control | T/C (dose: 5.0 mg/kg/injection, schedule: Q03HX008 (ip), vehicle: water, evaluated on day 60): 110 % of control | survivor count (dose: 5.0 mg/kg/injection, schedule: Q03HX024 (ip), vehicle: water): 8 of 8 | T/C (dose: 5.0 mg/kg/injection, schedule: Q04DX003 (ip), vehicle: water, evaluated on day 5): 94, 109, 138, 160 % of control | T/C (dose: 5.0 mg/kg/injection, schedule: Q04DX003 (ip), vehicle: water, evaluated on day 7): 111, 112, 113, 114 % of control | T/C (dose: 5.0 mg/kg/injection, schedule: Q04DX003 (ip), vehicle: water, evaluated on day 24): 116 % of control | T/C (dose: 5.0 mg/kg/injection, schedule: Q04DX003 (ip), vehicle: water, evaluated on day 31): 112 % of control | T/C (dose: 5.0 mg/kg/injection, schedule: Q04DX003 (ip), vehicle: water, evaluated on day 40): 114 % of control | T/C (dose: 5.0 mg/kg/injection, schedule: Q04DX003 (ip), vehicle: water, evaluated on day 46): 161 % of control | T/C (dose: 5.0 mg/kg/injection, schedule: Q04DX003 (ip), vehicle: water, evaluated on day 60): 95, 100 [7 of 8 alive], 109 (2×), 111, 135, 136 % of control | T/C (dose: 5.0 mg/kg/injection, schedule: Q04DX003 (ip), vehicle: water, evaluated on day 61): 131 % of control | T/C (dose: 5.0 mg/kg/injection, schedule: Q04DX003 (ip), vehicle: water, evaluated on day 90): 155 % of control | T/C (dose: 5.0 mg/kg/injection, schedule: Q08DX002 (ip), vehicle: water, evaluated on day 30): 148 % of control | T/C (dose: 5.0 mg/kg/injection, schedule: Q08DX002 (ip), vehicle: water, evaluated on day 60): 113 and 118 % of control | T/C (dose: 5.0 mg/kg/injection, schedule: Q08DX002 (ip), vehicle: water, evaluated on day 61): 126 % of control | T/C (dose: 5.9 mg/kg/injection, schedule: Q01DX001 (ip), vehicle: water): 127 % of control | T/C (dose: 6.0 mg/kg/injection, schedule: Q03HX008 (ip), vehicle: water, evaluated on day 5): 42 and 53 % of control | T/C (dose: 6.0 mg/kg/injection, schedule: Q03HX008 (ip), vehicle: water, evaluated on day 7): 86 % of control | T/C (dose: 6.0 mg/kg/injection, schedule: Q03HX008 (ip), vehicle: water, evaluated on day 30): 86 % of control | survivor count (dose: 6.0 mg/kg/injection, schedule: Q03HX008 (ip), vehicle: water): 0 of 8 (2×) | T/C (dose: 8.0 mg/kg/injection, schedule: Q01DX001 (ip), vehicle: saline, evaluated on day 5): 139, 149, 151, 155, 160, 166, 226 % of control
